Experimental data published in patent US9784746B2, “Method for studying transport of an agent across a bilayer membrane in bioanalytical sensor applications” (Bio-Rad Laboratories, Inc., priority 2008, dated 2017).

Legend:
[1] = Melittin binding to tethered POPC liposomes (Biacore SPR); conditions: data not shown
Protocol: Liposomes were made by first evaporating the solvent, chloroform, from the POPC lipids using a flow of nitrogen gas. The dried lipids were then kept under the flow of nitrogen gas for at least one hour after which HEPES-2 was added to yield a 4 mg/ml concentration of POPC. The dissolved POPC lipids were vortexed for at least 30 min to yield multi-laminar liposomes. Uni-laminar liposomes were produced using a mini extruder and polycarbonate membranes with pore size of 50 nm from Avanti Polar Lipids® with a 50 nm pore size. […] The liposomes were stored under nitrogen gas at 4° C. until use (within 2 days).
A mixture (300 μl) of HS-PEG (200 μg/ml) and HS-PEG-Biotin (20 μg/ml), dissolved in HEPES-2, were injected over the Biacore® Au sensor chip at a flow rate of 5 μl/min. Then a mixture (150 μl) of NeutrAvidin (40 μg/ml) and Biotin-DNA (0.7 μM) was injected and bound to HS-PEG-Biotin at the surface.
POPC liposomes (2 mg/ml, in HEPES-2) containing cholesterol-DNA tags (3 DNA tags per liposome) were injected at a flow rate of 5 μl/min. The end of the DNA-part of the cholesterol-DNA tag is single-stranded and complementary in sequence to the Biotin-DNA at the surface enabling tethering of the liposomes to the sensor surface.
The reversible binding of melittin was measured in the Biacore® instrument directly after the tethering of POPC liposomes was finished. […]

[2] = Melittin pore mediated sucrose uptake into tethered liposomes (SPR refractive index); type: physicochemical; conditions: 0.1 M sucrose after 40 μM melittin
Protocol: After tethering of NeutrAvidin/Biotin-DNA the following injections were made in sequential order; 0.1 M sucrose, 2 mg/ml cholesterol-DNA tagged POPC-liposomes, 0.1 M sucrose, 40 μM melittin, 0.1 M sucrose, 0.1 M sucrose, 0.1 M sucrose. All samples were dissolved in HEPES-2.
A simple method for real-time and label-free uptake measurements of analytes across membranes at a biosensor surface would be of great value when investigating for example membrane transporters. Here we wanted to test if it was possible to measure the uptake of an analyte, sucrose, through the melittin pore by simply detecting the change in refractive index of the solution inside the liposome caused by the analyte as it is taken up.
Adding sucrose changes the refractive index of the solution in the detection volume, i.e. the volume corresponding to the evanescent field above the sensor surface, which is manifested as a shift in RU. […]
The amplitude of the uptake decrease from S3 to S5, which is explained by a decreasing number of liposomes having pores. […] The expected RU of the 7400 sucrose molecules (0.1 M) inside the liposome can be calculated from the obtained response of immobilizing the liposome itself (RU=6790). […] Since only ˜85% of the liposomes have pores the expected value is 480/0.85≈560 RU, which is in good agreement with the measured response of 530 RU from the S3 injection.

CC[C@H](C)[C@H](NC(=O)CN)C(=O)NCC(=O)N[C@@H](C)C(=O)N[C@H](C(=O)N[C@@H](CC(C)C)C(=O)N[C@@H](CCCCN)C(=O)N[C@H](C(=O)N[C@@H](CC(C)C)C(=O)N[C@H](C(=O)N[C@H](C(=O)NCC(=O)N[C@@H](CC(C)C)C(=O)N1CCC[C@H]1C(=O)N[C@@H](C)C(=O)N[C@@H](CC(C)C)C(=O)N[C@H](C(=O)N[C@@H](CO)C(=O)N[C@@H](Cc1c[nH]c2ccccc12)C(=O)N[C@H](C(=O)N[C@@H](CCCCN)C(=O)N[C@@H](CCCNC(=N)N)C(=O)N[C@@H](CCCCN)C(=O)N[C@@H](CCCNC(=N)N)C(=O)N[C@@H](CCC(N)=O)C(=O)N[C@@H](CCC(N)=O)C(N)=O)[C@@H](C)CC)[C@@H](C)CC)[C@@H](C)O)[C@@H](C)O)C(C)C)C(C)C [melittin]
Unspecific binding (to biosensor surface without liposomes) relative to binding to the liposome membrane surface [1]: less than 5%

OC[C@H]1O[C@@](CO)(O[C@H]2O[C@H](CO)[C@@H](O)[C@H](O)[C@H]2O)[C@@H](O)[C@@H]1O [sucrose]
measured response from the S3 injection [2]: 530 RU
